Results published in publication PMC8481291 (Nature Communications, 2021).
Results are given in words; binding and its absence hold for the method and conditions named.

Chains of the proteins cited; added tags and fusions are not shown. Residues count along the entry.
UniProt Q7CNU3, residues 23-367: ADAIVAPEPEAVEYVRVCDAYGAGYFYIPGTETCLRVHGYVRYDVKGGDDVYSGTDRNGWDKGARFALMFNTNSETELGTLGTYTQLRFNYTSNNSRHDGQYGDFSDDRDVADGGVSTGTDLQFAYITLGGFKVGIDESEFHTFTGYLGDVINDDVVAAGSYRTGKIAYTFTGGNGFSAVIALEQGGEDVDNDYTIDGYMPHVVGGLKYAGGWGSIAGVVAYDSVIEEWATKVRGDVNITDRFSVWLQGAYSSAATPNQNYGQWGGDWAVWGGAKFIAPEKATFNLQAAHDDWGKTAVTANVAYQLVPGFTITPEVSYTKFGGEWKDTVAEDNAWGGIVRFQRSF

Assays:
[1] = target: Omp2a (Brucella melitensis) (UniProt Q7CNU3); experiment: SEC; both purified
[2] = target: Omp2a (Brucella melitensis) (UniProt Q7CNU3); experiment: AUC; both purified

Omp2a (from UniProt Q7CNU3 23-367)
binding [1]: no binding (condition: Omp2a folded without tES)
binding [2]: no binding (condition: Omp2a folded without tES)
